From patent publication US20130269064A1, “INSECTICIDAL COMPOUNDS” (SYNGENTA PARTICIPATIONS AG, priority 2010, published 2013)
Some results were stated once for a whole list of compounds, not compound by compound.

How the values were obtained:
Type in all cases: in vivo
[1] = test system: Spodoptera littoralis; assay: Spodoptera littoralis (Egyptian cotton leafworm) cotton leaf disc test; conditions: 200 ppm sprayed on cotton leaf discs, 5 L1 larvae, mortality, feeding behaviour, growth regulation 3 DAT
Description: Spodoptera littoralis (Egyptian Cotton Leafworm): Cotton leaf discs were placed on agar in a 24-well microtiter plate and sprayed with test solutions at an application rate of 200 ppm. After drying, the leaf discs were infested with 5 L1 larvae. The samples were checked for mortality, feeding behaviour, and growth regulation 3 days after treatment (DAT).

[2] = test system: Heliothis virescens; assay: Heliothis virescens (tobacco budworm) egg/artificial diet test; conditions: 200 ppm (concentration in well 18 ppm), eggs 0-24 h old on artificial diet, 4 days, egg mortality, larval mortality, growth regulation
Experimental: Heliothis virescens (Tobacco Budworm): Eggs (0-24 h old) were placed in 24-well microtiter plate on artificial diet and treated with test solutions at an application rate of 200 ppm (concentration in well 18 ppm) by pipetting. After an incubation period of 4 days, samples were checked for egg mortality, larval mortality and growth regulation.

[3] = test system: Plutella xylostella; assay: Plutella xylostella (diamond back moth) artificial diet test; conditions: 200 ppm (concentration in well 18 ppm), L2 larvae, 6 days, larval mortality and growth regulation
Experimental: (§1) Plutella xylostella (Diamond Back Moth): A 24-well microtiter plate (MTP) with artificial diet was treated with test solutions at an application rate of 200 ppm (concentration in well 18 ppm) by pipetting. After drying, the MTP's were infested with L2 larvae (7-12 per well). After an incubation period of 6 days, samples were checked for larval mortality and growth regulation.

[4] = test system: Diabrotica balteata; assay: Diabrotica balteata (corn root worm) artificial diet test; conditions: 200 ppm (concentration in well 18 ppm), L2 larvae, 5 days, larval mortality and growth regulation
Experimental: as §1, with “Diabrotica balteata (Corn Root Worm):” for “Plutella xylostella (Diamond Back Moth):”, “with” for “with L2”, “(L2) (6-10” for “(7-12”, “5” for “6”, “mortality,” for “mortality”

[5] = test system: Tetranychus urticae; assay: Tetranychus urticae (two-spotted spider mite) bean leaf disc test; conditions: 200 ppm sprayed on bean leaf discs, mixed ages, 8 days, egg, larval and adult mortality
Description: Tetranychus urticae (Two-Spotted Spider Mite): Bean leaf discs on agar in 24-well microtiter plates were sprayed with test solutions at an application rate of 200 ppm. After drying, the leaf discs are infested with mite populations of mixed ages. 8 days later, discs are checked for egg mortality, larval mortality, and adult mortality.

[6] = test system: Thrips tabaci; assay: Thrips tabaci (onion thrips) sunflower leaf disc test; conditions: 200 ppm sprayed on sunflower leaf discs, mixed ages, 7 days, mortality
Experimental: Thrips tabaci (Onion Thrips): Sunflower leaf discs were placed on agar in a 24-well microtiter plate and sprayed with test solutions at an application rate of 200 ppm. After drying, the leaf discs were infested with an […] population of mixed ages. After an incubation period of 7 days, samples were checked for mortality.

[7] = test system: Myzus persicae; assay: Myzus persicae (green peach aphid) sunflower leaf disc test; conditions: 200 ppm sprayed on sunflower leaf discs, mixed ages, 6 DAT, mortality

Cc1cc(F)ccc1C(=O)Nc1cccc(C(=O)Nc2c(C(F)(F)F)c(C(F)(F)C(F)(F)F)nn2C)c1F [Compound B7]
at least 80%: control of Spodoptera littoralis [1] | control of Heliothis virescens [2] | control of Plutella xylostella [3] | control of Diabrotica balteata [4] | control of Tetranychus urticae [5]

Cn1nc(C(F)(F)C(F)(F)F)c(C(F)(F)F)c1NC(=O)c1cccc(NC(=O)c2ccc([N+](=O)[O-])cc2Cl)c1F [Compound B9]
at least 80%: control of Spodoptera littoralis [1] | control of Heliothis virescens [2] | control of Plutella xylostella [3] | control of Diabrotica balteata [4] | control of Thrips tabaci [6] | control of Tetranychus urticae [5]

Cn1nc(C(F)(F)C(F)(F)F)c(C(F)(F)F)c1NC(=O)c1cccc(NC(=O)c2cccc(C(F)(F)F)c2)c1F [Compound B13]
at least 80%: control of Spodoptera littoralis [1] | control of Heliothis virescens [2] | control of Plutella xylostella [3] | control of Diabrotica balteata [4] | control of Myzus persicae [7]

Cn1nc(C(F)(F)C(F)(F)F)c(C(F)(F)F)c1NC(=O)c1cccc(NC(=O)c2ccc(F)cc2)c1F [Compound B17]
at least 80%: control of Myzus persicae [7]

Cn1nc(C(F)(F)C(F)(F)F)c(C(F)(F)F)c1NC(=O)c1cccc(NC(=O)c2ccccc2C(F)(F)F)c1F [Compound B18]
at least 80%: control of Spodoptera littoralis [1] | control of Heliothis virescens [2] | control of Plutella xylostella [3] | control of Diabrotica balteata [4] | control of Thrips tabaci [6]

Cn1nc(C(F)(F)C(F)(F)F)c(C(F)(F)F)c1NC(=O)c1cccc(NC(=O)c2ccc(F)cc2Cl)c1F [Compound B19]
at least 80%: control of Spodoptera littoralis [1] | control of Heliothis virescens [2] | control of Plutella xylostella [3] | control of Diabrotica balteata [4] | control of Thrips tabaci [6] | control of Tetranychus urticae [5]

COc1c(NC(=O)c2ccccc2Cl)cccc1C(=O)Nc1c(C(F)(F)F)c(C(F)(F)C(F)(F)F)nn1C [Compound C3]
at least 80%: control of Spodoptera littoralis [1] | control of Plutella xylostella [3] | control of Diabrotica balteata [4] | control of Thrips tabaci [6]

COc1c(NC(=O)c2ccc([N+](=O)[O-])cc2)cccc1C(=O)Nc1c(C(F)(F)F)c(C(F)(F)C(F)(F)F)nn1C [Compound C5]
at least 80%: control of Spodoptera littoralis [1] | control of Plutella xylostella [3] | control of Diabrotica balteata [4] | control of Tetranychus urticae [5]

COc1c(NC(=O)c2ccc([N+](=O)[O-])cc2Cl)cccc1C(=O)Nc1c(C(F)(F)F)c(C(F)(F)C(F)(F)F)nn1C [Compound C9]
at least 80%: control of Heliothis virescens [2] | control of Diabrotica balteata [4] | control of Thrips tabaci [6] | control of Tetranychus urticae [5]

COc1c(NC(=O)c2ccc(OC(F)(F)F)cc2)cccc1C(=O)Nc1c(C(F)(F)F)c(C(F)(F)C(F)(F)F)nn1C [Compound C11]
at least 80%: control of Spodoptera littoralis [1] | control of Heliothis virescens [2] | control of Diabrotica balteata [4] | control of Tetranychus urticae [5]

COc1c(NC(=O)c2cccc(C(F)(F)F)c2)cccc1C(=O)Nc1c(C(F)(F)F)c(C(F)(F)C(F)(F)F)nn1C [Compound C13]
at least 80%: control of Spodoptera littoralis [1] | control of Heliothis virescens [2] | control of Diabrotica balteata [4] | control of Thrips tabaci [6]

COc1c(NC(=O)c2ccc(F)cc2Cl)cccc1C(=O)Nc1c(C(F)(F)F)c(C(F)(F)C(F)(F)F)nn1C [Compound C19]
at least 80%: control of Spodoptera littoralis [1] | control of Heliothis virescens [2] | control of Plutella xylostella [3] | control of Diabrotica balteata [4] | control of Thrips tabaci [6] | control of Tetranychus urticae [5]

Cn1nc(C(F)(F)C(F)(F)F)c(C(F)(F)F)c1NC(=O)c1ccc(Cl)c(NC(=O)c2ccccc2)c1 [Compound E16]
at least 80%: control of Myzus persicae [7]

Cn1nc(C(F)(F)C(F)(F)F)c(C(F)(F)F)c1NC(=O)c1ccc(Cl)c(NC(=O)c2ccc(F)cc2)c1 [Compound E17]
at least 80%: control of Myzus persicae [7]

Cn1nc(C(F)(F)C(F)(F)F)c(C(F)(F)F)c1NC(=O)c1ccc(Cl)c(NC(=O)c2ccccc2C(F)(F)F)c1 [Compound E18]
at least 80%: control of Myzus persicae [7]

Cc1nnsc1C(=O)Nc1cc(C(=O)Nc2c(C(F)(F)F)c(C(F)(F)C(F)(F)F)nn2C)ccc1Cl [Compound E20]
at least 80%: control of Myzus persicae [7] | control of Tetranychus urticae [5]
